Data as given in PubChem BioAssay AID602196 (INSERM, 2012).

- Assay: 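Knock-downs that protect lung cancer cells from cisplatin or sensitise them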
- System: human A549 lung cancer cells
- Knock-down reagent: siRNA pair against human genes
- Timing: 48 h transfection before cisplatin; time from cisplatin to read-out not stated
- Conditions: cisplatin at a dose killing half of control-siRNA cells; exact dose and duration not given
- Measurement: 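Cisplatin cell death as a shift from the 50% death seen with control siRNA; siRNAs toxic or growth-blocking alone scored 0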
- Direction: two-siRNA summed score (-2 to +2): higher = both siRNAs protect from cisplatin killing; -2 means both sensitise
- Rule for the call: 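Each siRNA scores 0 if harmful alone by LDH or WST-1, otherwise +1 if it reduces and -1 if it increases cisplatin killing; a gene is active when both siRNAs agree (sum +2 or -2)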
- Meaning of the calls: active = both siRNAs shift cisplatin killing the same way; inactive = no consistent shift, or siRNA harmful alone
This is one part, drawn at random, of about 23,000 reagents tested. 455 of all reagents (2%) count as active. 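Active includes both protection and sensitisation; some change values fall well beyond the stated -50 to +50 range.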 A number with no mark means an inactive call. Further read-outs or replicates are left out here. Not stated in the record: the amount of reagent.

| Target gene | two-siRNA summed score (-2 to +2) |
| --- | --- |
| PGAP6 | 0 |
| GTF2IP20 | 0 |
| NSUN5P2 | 0 |
| PCDHGA11 | 1 |
| RGS18 | -1 |
| MTFP1 | 1 |
| HMGA1 | 0 |
| SRRM2 | 0 |
| TAF7 | -1 |
| SATB1 | -1 |
| DCTN3 | 0 |
| REXO5 | 0 |
| COL22A1 | 0 |
| LOC402269 (retired record) | -1 |
| LOC401848 | 0 |
| DEF8 | 0 |
| CD14 | 0 |
| ZC3H18-DT | 1 |
| STK25 | -1 |
| TARBP1 | 0 |
| PEX14 | 0 |
| APBB3 | 0 |
| SLC25A48-AS1 | 0 |

2 entries already listed, sorted by “two-siRNA summed score (-2 to +2)”, low to high.
| Target gene | two-siRNA summed score (-2 to +2) |
| --- | --- |
| LOC402269 (retired record) | -1 |
| LOC401848 | 0 |
